± gives the standard deviation of the averaged measurements. The reference is the same well before dosing, and untreated signal decays as well.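 Fibroblast labels denote human fibroblasts, mainly primary ones from uterus (C12385, HUF), lung (H6013), bone (Hs27A), adrenal (HADF) and skin (WS1), plus mammary HMF and breast cancer-associated Hs343T. Cancer cells are basal-like or mesenchymal-like triple-negative breast cancer lines. A hit is a response shift exceeding 3x replicate standard deviation. The tissue of the other fibroblasts is not given here.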
System: MDAMB468
Assay: relative JC-1 red fluorescence (viability) vs pre-drug, coculture with fibroblast (fraction); higher = more viable cancer cells
Description: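 JC-1 labelled TNBC cells cocultured 1:1 (1,500 cells each) with CellTrace Violet stained primary or stromal fibroblasts in 384-well plates in FluoroBrite medium, treated with one of 42 anticancer drugs at 0.1, 1, 10 or 100 uM. JC-1 red fluorescence (mitochondrial integrity in cancer cells only) was read by plate reader every 8 h for 72 h. Values are normalised to each well's pre-drug value. The stock of one drug was tenfold lower, so its dose labels may be too high.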

CCN(CC)CCNC(=O)c1c(C)[nH]c(/C=C2\C(=O)Nc3ccc(F)cc32)c1C [Sunitinib]
relative JC-1 red fluorescence
Details | 8 h | 16 h | 24 h | 32 h | 40 h | 48 h | 56 h | 64 h | 72 h
0.1 µM, coculture fibroblast: C12385 | 0.829 ± 0.039 | 0.842 ± 0.013 | 0.848 ± 0.011 | 0.8205 ± 0.0034 | 0.797 ± 0.011 | 0.809 ± 0.031 | 0.786 ± 0.055 | 0.792 ± 0.058 | 0.795 ± 0.072
0.1 µM, coculture fibroblast: H6013 | 0.867 ± 0.0093 | 0.874 ± 0.024 | 0.846 ± 0.031 | 0.842 ± 0.02 | 0.828 ± 0.015 | 0.846 ± 0.012 | 0.8327 ± 0.0038 | 0.8353 ± 0.0071 | 0.787 ± 0.013
0.1 µM, coculture fibroblast: H6019 | 0.816 ± 0.014 | 0.7945 ± 0.0017 | 0.7686 ± 0.002 | 0.7093 ± 0.0039 | 0.6791 ± 0.0029 | 0.6755 ± 0.0039 | 0.627 ± 0.016 | 0.592 ± 0.0086 | 0.57 ± 0.0061
0.1 µM, coculture fibroblast: H6076 | 0.891 ± 0.007 | 0.9285 ± 0.004 | 0.8936 ± 0.0082 | 0.893 ± 0.014 | 0.8286 ± 0.0065 | 0.8351 ± 0.006 | 0.809 ± 0.014 | 0.797 ± 0.013 | 0.835 ± 0.017
0.1 µM, coculture fibroblast: H6231 | 0.815 ± 0.048 | 0.879 ± 0.055 | 0.781 ± 0.059 | 0.769 ± 0.013 | 0.724 ± 0.032 | 0.708 ± 0.02 | 0.6713 ± 0.0022 | 0.654 ± 0.0084 | 0.654 ± 0.02
0.1 µM, coculture fibroblast: HADF | 0.87 ± 0.02 | 0.8659 ± 0.0061 | 0.8186 ± 0.0025 | 0.811 ± 0.013 | 0.779 ± 0.013 | 0.776 ± 0.014 | 0.743 ± 0.011 | 0.739 ± 0.011 | 0.697 ± 0.013
0.1 µM, coculture fibroblast: HCFa | 0.858 ± 0.03 | 0.831 ± 0.035 | 0.773 ± 0.035 | 0.736 ± 0.038 | 0.681 ± 0.039 | 0.679 ± 0.043 | 0.637 ± 0.045 | 0.6 ± 0.034 | 0.564 ± 0.028
0.1 µM, coculture fibroblast: HCPF | 0.84708 ± 0.00016 | 0.9371 ± 0.0084 | 0.861 ± 0.018 | 0.851 ± 0.019 | 0.795 ± 0.011 | 0.763 ± 0.018 | 0.722 ± 0.023 | 0.713 ± 0.021 | 0.698 ± 0.025
0.1 µM, coculture fibroblast: HHSteC | 0.889 ± 0.013 | 0.887 ± 0.018 | 0.8397 ± 0.0073 | 0.8018 ± 0.0059 | 0.7757 ± 0.0077 | 0.78 ± 0.011 | 0.719 ± 0.016 | 0.701 ± 0.015 | 0.645 ± 0.022
0.1 µM, coculture fibroblast: HMF | 0.82 ± 0.0072 | 0.932 ± 0.04 | 0.866 ± 0.031 | 0.844 ± 0.0094 | 0.7897 ± 0.0039 | 0.772 ± 0.0078 | 0.7245 ± 0.0028 | 0.7038 ± 0.0056 | 0.691 ± 0.012
0.1 µM, coculture fibroblast: HPFa | 0.907 ± 0.013 | 0.8704 ± 0.0072 | 0.839 ± 0.016 | 0.779 ± 0.022 | 0.7594 ± 0.006 | 0.7551 ± 0.0015 | 0.699 ± 0.0091 | 0.683 ± 0.011 | 0.603 ± 0.029
0.1 µM, coculture fibroblast: HUF | 0.866 ± 0.032 | 0.804 ± 0.015 | 0.764 ± 0.018 | 0.705 ± 0.029 | 0.666 ± 0.035 | 0.654 ± 0.043 | 0.615 ± 0.048 | 0.603 ± 0.046 | 0.595 ± 0.049
0.1 µM, coculture fibroblast: Hs5 | 0.921 ± 0.04 | 0.921 ± 0.036 | 0.895 ± 0.033 | 0.867 ± 0.027 | 0.802 ± 0.023 | 0.783 ± 0.017 | 0.754 ± 0.019 | 0.728 ± 0.018 | 0.7527 ± 0.0047
0.1 µM, coculture fibroblast: Hs27A | 0.8406 ± 0.0053 | 0.849 ± 0.018 | 0.7933 ± 0.0072 | 0.797 ± 0.011 | 0.7408 ± 0.0019 | 0.7419 ± 0.0024 | 0.706 ± 0.0075 | 0.69 ± 0.016 | 0.641 ± 0.017
0.1 µM, coculture fibroblast: Hs343T | 0.882 ± 0.029 | 0.968 ± 0.029 | 0.924 ± 0.067 | 0.907 ± 0.09 | 0.837 ± 0.1 | 0.82 ± 0.097 | 0.772 ± 0.091 | 0.753 ± 0.09 | 0.74 ± 0.093
0.1 µM, coculture fibroblast: WS1 | 0.806 ± 0.03 | 0.759 ± 0.019 | 0.721 ± 0.014 | 0.657 ± 0.017 | 0.611 ± 0.032 | 0.591 ± 0.045 | 0.569 ± 0.054 | 0.553 ± 0.066 | 0.545 ± 0.061
1 µM, coculture fibroblast: C12385 | 0.861 ± 0.037 | 0.814 ± 0.01 | 0.798 ± 0.022 | 0.756 ± 0.017 | 0.7044 ± 0.0025 | 0.7 ± 0.0028 | 0.659 ± 0.0071 | 0.6432 ± 0.0019 | 0.6408 ± 0.00071
1 µM, coculture fibroblast: H6013 | 0.852 ± 0.016 | 0.867 ± 0.011 | 0.839 ± 0.019 | 0.841 ± 0.017 | 0.832 ± 0.0092 | 0.847 ± 0.021 | 0.833 ± 0.038 | 0.825 ± 0.048 | 0.776 ± 0.061
1 µM, coculture fibroblast: H6019 | 0.815 ± 0.048 | 0.804 ± 0.041 | 0.773 ± 0.041 | 0.734 ± 0.035 | 0.69 ± 0.04 | 0.675 ± 0.047 | 0.624 ± 0.05 | 0.585 ± 0.051 | 0.563 ± 0.042
1 µM, coculture fibroblast: H6076 | 0.8969 ± 0.0076 | 0.934 ± 0.031 | 0.884 ± 0.032 | 0.874 ± 0.034 | 0.801 ± 0.044 | 0.793 ± 0.048 | 0.759 ± 0.04 | 0.738 ± 0.041 | 0.752 ± 0.032
1 µM, coculture fibroblast: H6231 | 0.824 ± 0.025 | 0.91 ± 0.036 | 0.853 ± 0.026 | 0.823 ± 0.019 | 0.767 ± 0.018 | 0.741 ± 0.0095 | 0.6916 ± 0.0016 | 0.65693 ± 5.4e-05 | 0.638 ± 0.0084
1 µM, coculture fibroblast: HADF | 0.899 ± 0.04 | 0.852 ± 0.0031 | 0.7979 ± 0.0013 | 0.7892 ± 0.00085 | 0.748 ± 0.013 | 0.739 ± 0.018 | 0.704 ± 0.031 | 0.693 ± 0.035 | 0.655 ± 0.035
1 µM, coculture fibroblast: HCFa | 0.856 ± 0.022 | 0.865 ± 0.04 | 0.83 ± 0.051 | 0.811 ± 0.056 | 0.776 ± 0.058 | 0.774 ± 0.066 | 0.723 ± 0.074 | 0.691 ± 0.077 | 0.64 ± 0.082
1 µM, coculture fibroblast: HCPF | 0.828 ± 0.012 | 0.912 ± 0.012 | 0.876 ± 0.049 | 0.866 ± 0.06 | 0.792 ± 0.066 | 0.758 ± 0.074 | 0.707 ± 0.075 | 0.691 ± 0.087 | 0.669 ± 0.079
1 µM, coculture fibroblast: HHSteC | 0.889 ± 0.019 | 0.873 ± 0.033 | 0.844 ± 0.05 | 0.813 ± 0.057 | 0.795 ± 0.068 | 0.794 ± 0.08 | 0.748 ± 0.085 | 0.722 ± 0.084 | 0.674 ± 0.088
1 µM, coculture fibroblast: HMF | 0.845 ± 0.024 | 0.9331 ± 0.0089 | 0.875 ± 0.015 | 0.85575 ± 7.3e-05 | 0.789 ± 0.012 | 0.783 ± 0.017 | 0.7325 ± 0.0045 | 0.715 ± 0.016 | 0.691 ± 0.015
1 µM, coculture fibroblast: HPFa | 0.913 ± 0.05 | 0.8795 ± 0.007 | 0.8653 ± 0.0072 | 0.8268 ± 0.0024 | 0.828 ± 0.009 | 0.823 ± 0.0099 | 0.769 ± 0.025 | 0.747 ± 0.031 | 0.669 ± 0.033
1 µM, coculture fibroblast: HUF | 0.872 ± 0.033 | 0.81 ± 0.01 | 0.7802 ± 0.004 | 0.7187 ± 0.0032 | 0.681 ± 0.0083 | 0.663 ± 0.0092 | 0.615 ± 0.017 | 0.597 ± 0.025 | 0.577 ± 0.032
1 µM, coculture fibroblast: Hs5 | 0.967 ± 0.015 | 0.93 ± 0.028 | 0.878 ± 0.045 | 0.853 ± 0.047 | 0.788 ± 0.04 | 0.754 ± 0.052 | 0.718 ± 0.047 | 0.691 ± 0.046 | 0.684 ± 0.043
1 µM, coculture fibroblast: Hs27A | 0.882 ± 0.014 | 0.863 ± 0.029 | 0.797 ± 0.035 | 0.798 ± 0.041 | 0.762 ± 0.037 | 0.758 ± 0.047 | 0.717 ± 0.038 | 0.692 ± 0.028 | 0.644 ± 0.018
1 µM, coculture fibroblast: Hs343T | 0.864 ± 0.07 | 0.916 ± 0.083 | 0.881 ± 0.07 | 0.865 ± 0.063 | 0.794 ± 0.067 | 0.782 ± 0.055 | 0.74 ± 0.052 | 0.716 ± 0.039 | 0.69 ± 0.018
1 µM, coculture fibroblast: WS1 | 0.818 ± 0.013 | 0.761 ± 0.036 | 0.741 ± 0.021 | 0.679 ± 0.019 | 0.641 ± 0.012 | 0.617 ± 0.027 | 0.597 ± 0.018 | 0.57 ± 0.029 | 0.566 ± 0.034

Source: the supplement of paper PMC6078165
